Measured values from patent US20080280859A1, “GEMINI VITAMIN D3 COMPOUNDS AND METHODS OF USE THEREOF” (BioXell S.p.A., priority 2005, published 2008).
At least one compound was matched to its structure with a doubt left.

Test system: ILT3 expression on monocyte-derived immature dendritic cells
Assay: ILT3 upregulation on monocyte-derived immature dendritic cells (flow cytometry)
Format: cell-based, human
Details: graded doses, 24 hours; up to 1000 nM
Method: Immature dendritic cells (DC) were prepared as described in Romani, N. et al., (1996) J. Immunol. Meth. 196:137). Briefly, peripheral blood mononuclear cells (PBMCs) were obtained from a buffy coat by ficoll-hypaque gradient (Pharmacia Biotec AB, Upsala, Sweden) and monocytes isolated from PBMCs by negative selected with a monocyte isolation kit (Milteny, Biotech, Bergish Gladblach, Germany). After isolation, monocytes were cultured for 6 to 7 days at a cell density of 1-2×106 in RPMI medium supplemented with 5% FetalClone I (Hyclone Laboratories, Logan, Utah) 2 mM L-glutamine, […], 1 mM sodium pyruvate and 1% nonessential amino acids, containing 800 U/ml GM-CSF (Mielogen 300, Schering-Plough) and 10 ng/ml interleukin (IL)-4 (PharMingen, San Diego, Calif.). Every other day, approximately 20% of the medium was removed and replaced by the same volume of fresh medium containing GM-CSF and IL-4.
Immunoglobulin-like transcript-3 upregulation was evaluated by flow cytometric analysis. […] Cells were then analyzed with a FACScanR flow cytometer using a Cell QuestR software program (both from Beckton Dickinson, Mountain View, Calif.).

Compound: C[C@@H]1C[C@H]2[C@@H]3CCC4=CC(=O)C=C[C@]4(C)[C@@]3(F)[C@@H](O)C[C@]2(C)[C@@]1(O)C(=O)CO [Dexamethasone, reference compound]
- upregulation of ILT3 expression: fail to upregulate ILT3 expression at any concentration tested
